Measured values as given in article PMC9949381.
Results are given in words; binding and its absence hold for the method and conditions named. Binding seen in cells or lysates may run through a third protein. Some results given as binding are weak or reduced against the parent protein; the word gives no strength. Tags and fused reporters may be left off the sequences shown.

Chains of the proteins cited; added tags and fusions are not shown.
UniProt O15379: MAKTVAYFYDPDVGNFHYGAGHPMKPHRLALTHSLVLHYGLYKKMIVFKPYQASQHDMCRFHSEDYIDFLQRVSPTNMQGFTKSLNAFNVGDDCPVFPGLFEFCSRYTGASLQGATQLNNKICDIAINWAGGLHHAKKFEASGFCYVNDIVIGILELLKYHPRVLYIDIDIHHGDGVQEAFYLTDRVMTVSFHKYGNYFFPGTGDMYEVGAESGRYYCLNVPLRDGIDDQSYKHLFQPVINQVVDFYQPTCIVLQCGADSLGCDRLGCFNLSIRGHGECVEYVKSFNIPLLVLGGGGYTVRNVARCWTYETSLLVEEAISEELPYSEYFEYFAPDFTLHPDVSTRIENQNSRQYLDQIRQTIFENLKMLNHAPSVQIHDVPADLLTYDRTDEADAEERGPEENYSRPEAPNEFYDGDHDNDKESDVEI

Columns and labels:
[1] = target: T1, 3X-Flagged Seven in Absentia Homolog 2 (SIAH2) protein (human) (UniProt O43255); experiment: co-IP; SIAH2 pull-down; HDAC3 detected in the immunoprecipitated fraction (Supplementary Fig. S7D); method not described in the text shown
T1 sequence: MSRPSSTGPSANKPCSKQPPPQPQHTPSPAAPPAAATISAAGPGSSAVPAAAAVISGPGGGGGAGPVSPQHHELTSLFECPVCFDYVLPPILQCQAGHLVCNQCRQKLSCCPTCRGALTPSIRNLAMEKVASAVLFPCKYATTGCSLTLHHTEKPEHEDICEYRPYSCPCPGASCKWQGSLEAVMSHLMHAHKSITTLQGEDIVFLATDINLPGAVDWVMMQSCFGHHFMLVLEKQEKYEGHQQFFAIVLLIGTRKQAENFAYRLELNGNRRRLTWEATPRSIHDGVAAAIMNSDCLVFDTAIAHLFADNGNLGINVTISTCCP

[2] = target: T1, 3X-Flagged Seven in Absentia Homolog 2 (SIAH2) protein (human); experiment: proximity ligation; Duolink in situ PLA on fixed, permeabilised MM.1S-3xFlag-tagged SIAH2 cells after 24 h with 0.5 umol/L lactacystin; anti-FLAG and anti-HDAC3 primary antibodies

histone deacetylase 3 (HDAC3) (from UniProt O15379 1-428) (enzyme)
binding [1]: binds | binding [2]: binds
